US20190218308A1
Changes are numbered by the printed parent chain. These are yes or no findings as the source states them, for the method shown. Some binding calls cover weakened binding; strength is not graded here.

What was measured:
CD39 mutant 3 (human) = biological target: T1, CD39 mutant 3 (human) (UniProt P49961); assay: flow cytometry, Hek-293T cells expressing mutant 3
T1 sequence: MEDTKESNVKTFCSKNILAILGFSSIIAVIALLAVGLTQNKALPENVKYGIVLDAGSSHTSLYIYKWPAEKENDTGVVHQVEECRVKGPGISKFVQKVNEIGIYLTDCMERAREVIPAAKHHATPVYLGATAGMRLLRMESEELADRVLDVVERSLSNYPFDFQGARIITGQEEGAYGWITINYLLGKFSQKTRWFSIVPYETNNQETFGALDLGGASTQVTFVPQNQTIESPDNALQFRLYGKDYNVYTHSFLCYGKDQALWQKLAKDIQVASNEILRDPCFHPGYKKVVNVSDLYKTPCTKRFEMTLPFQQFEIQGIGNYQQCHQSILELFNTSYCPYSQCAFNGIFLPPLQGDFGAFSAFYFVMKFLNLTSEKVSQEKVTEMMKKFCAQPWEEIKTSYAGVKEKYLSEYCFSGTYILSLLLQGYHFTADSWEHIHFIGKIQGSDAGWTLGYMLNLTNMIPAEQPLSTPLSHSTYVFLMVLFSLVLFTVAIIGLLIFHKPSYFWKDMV

CD39 mutant 2B (human) = biological target: T2, CD39 mutant 2B (human) (UniProt P49961); assay: flow cytometry, Hek-293T cells expressing mutant 2B
T2 sequence: T1 sequence with E110A, R113T, E114A, A118R, A119S, K120Q, H122Q, A123E

CD39 mutant 7 (human) = biological target: T3, CD39 mutant 7 (human) (UniProt P49961); assay: flow cytometry, Hek-293T cells expressing mutant 7
T3 sequence: T1 sequence with A118R, A119S, K120Q, H122Q, A123E, A273S, N275A, I277S, R279A

CD39 mutant 10B (human) = biological target: T4, CD39 mutant 10B (human) (UniProt P49961); assay: flow cytometry, Hek-293T cells expressing mutant 10B
T4 sequence: T1 sequence with A118R, A119S, K120Q, H122Q, A123E, H428A, T430A, A431D, D432A

CD39 mutant 1 (human) = biological target: T5, CD39 mutant 1 (human) (UniProt P49961); assay: flow cytometry, Hek-293T cells expressing mutant 1
T5 sequence: T1 sequence with V77G, H79Q, A118R, A119S, K120Q, H122Q, A123E, Q444K, G445D

Measured: binding

B1: antibody I-399 (antibody, V domains shown)
VH: PVQLQQPGAEVVMPGASVKLSCKASGYTFTSFWMNWMRQRPGQGLEWIGEIDPSDFYTNSNQRFKGKATLTVDKSSSTAYMQLSSLTSEDSAVYFCARGDFGWYFDVWGTGTSVTVSS
VL: EIVLTQSPTTMTSSPGEKITFTCSASSSINSNYLHWYQQKPGFSPKLLIYRTSNLASGVPTRFSGSGSGTSYSLTIGTMEAEDVATYYCQQGSSLPRTFGGGTKLEIK
binds: CD39 mutant 3 (human) | CD39 mutant 2B (human) | CD39 mutant 7 (human) | CD39 mutant 10B (human) | CD39 mutant 1 (human)
